# From PubChem BioAssay AID540256 (National Center for Advancing Translational Sciences (NCATS), 2011)
# Out of some 300,000 compounds screened, about 3,700 (1.2%) were called active. Inconclusive means that the source gave no clear call. Such entries were picked first, then a sample of the others. Calls come from the whole dose curve; tested in HEK293 cells. Where the call is inconclusive, the potency comes from a doubtful curve fit.
# Experiment: qHTS for Inhibitors of binding or entry into cells for Lassa Virus; note: nearly all actives have a fitted effect of over 50% in size
# Conditions: Lassa virus pseudotype entry inhibition, cell reporter; activity change, negative = inhibition: at 37.9 µM (top of the series) unless noted
# % is set by controls: 0 for no effect and ±100 for the full control effect; potency is the fitted concentration of half-maximal effect.
SMILES,Potency,"activity change, negative = inhibition"
C=CCn1c(COc2ccc(OC)cc2)nnc1SCn1nnc2ccccc2c1=O,"inconclusive: 23.1 µM [inhibitor, partial curve, poor fit]",–
O=C(Nc1cccc(C(=O)N2CCCc3ccccc32)c1)c1ccccc1,"inconclusive: 11.2 µM [inhibitor, partial curve, poor fit]",–
CC(C)c1cc(C(=O)N/N=C/c2ccco2)n[nH]1,–,inactive: 5.42%
COc1ccc(C(CNC(=O)c2cccc(S(=O)(=O)Nc3ccccc3OC)c2)N2CCCCC2)cc1 (stereo not given),"inconclusive: 12.6 µM [inhibitor, single point]",–
CC(C)(C)OC(=O)c1c(N)n(CCCN2CCCC2=O)c2nc3ccccc3nc12,"inconclusive: 5.8 µM [inhibitor, full curve, poor fit]",–
COc1ccc(NC(=O)CCn2nc(-c3ccc(Cl)cc3)c3ccccc3c2=O)cc1,–,inactive: 21.7% [at 46.1 µM]
CCCN1CCN(C(=O)c2cc(COc3ccc(F)cc3F)on2)CC1,"inconclusive: 6.31 µM [activator, partial curve, poor fit]",–
CCC1Oc2ccccc2N(CC(=O)Nc2ccc3c(c2)OCCO3)C1=O (stereo not given),–,inactive: 13.6%
CCCCC(O)(CCN1CCOCC1)c1ccc(Cl)cc1 (stereo not given),–,inactive: -0.678%
CCOC(=O)C(C)Sc1nc2c(c(-c3cccs3)c1C#N)CCC2 (stereo not given),–,inactive: -8.27%
Clc1ccc(-c2nc3ccccc3[nH]2)cn1,–,inactive: -0.959%
COCc1ccc(C(=O)N2CCCC(N(C)CCc3ccc(OC)c(OC)c3)C2)s1 (stereo not given),–,inactive: 11.1%
CCOc1ccc(CNC(=O)C(C)n2ncn3cccc3c2=O)cc1 (stereo not given),–,inactive: -6.02% [at 46.1 µM]
CCCCCCCC(=O)NC(Oc1ccccc1[N+](=O)[O-])C(Cl)(Cl)Cl (stereo not given),"inconclusive: 20.6 µM [inhibitor, single point]",–
Clc1ccc(-c2nnc(CCc3ccccc3)o2)c(Cl)c1,"inconclusive: 6.51 µM [activator, single point]",–
S=c1[nH]nc(-c2ccc3ccccc3n2)n1-c1ccc(Cl)cc1,–,inactive: 7.36%
Cc1ccc(-c2nc3sc4c(c3c(=O)n2N)CC(C)(C)OC4)cc1,–,inactive: 1.52%
Brc1ccc(-c2csc(NNC3=NCCCCC3)n2)cc1,"inconclusive: 20.6 µM [inhibitor, partial curve, poor fit]",–
Cc1cs/c(=N\N=C\c2ccc(O)cc2)n1Cc1ccco1,"inconclusive: 28.2 µM [inhibitor, single point]",–
c1ccc2oc(-c3ccn[nH]3)cc2c1,"inconclusive: 35.5 µM [inhibitor, single point]",–
CCCn1nc(-c2ccccc2)c2nc3ccccc3nc21,–,inactive: -13.2%
O=C(NCc1cccnc1)c1ccc(-c2cccc(Cl)c2Cl)o1,"inconclusive: 14.1 µM [inhibitor, single point]",–
Cc1c(C(=O)N2CCCCCC2)c(S(=O)(=O)Nc2ccc(F)cc2)c(C)n1C,"inconclusive: 22.4 µM [inhibitor, single point]",–
O=C(CCN1C(=O)/C(=C\c2ccc(F)cc2)SC1=S)Nc1ccc(O)cc1,–,inactive: -27.9%

SMILES,Potency,"activity change, negative = inhibition"
Cc1cc(C)c(OCCCON2C(=O)CCC2=O)c(Br)c1,–,inconclusive: 29.3% [activator]
COc1cccc(COc2ccc3c(C)cc(=O)oc3c2)c1,"inconclusive: 35.5 µM [inhibitor, single point]",–
COc1ccc(C(=O)Cn2c(=O)n3nc(CCn4nc(C)cc4C)nc3c3cc(OC)c(OC)cc32)cc1,"inconclusive: 4.47 µM [inhibitor, single point]",–
Cc1cc(NC(=O)CCCSc2nc(-c3ccco3)cc(C(F)(F)F)n2)no1,"inconclusive: 35.5 µM [inhibitor, single point]",–
CCCNC(=O)C1CN(S(=O)(=O)c2ccc(C)cc2)c2ccccc2O1 (stereo not given),"inconclusive: 10 µM [inhibitor, partial curve, poor fit]",–
CC1CCN(C(=O)CSc2n[nH]c(-c3cccs3)n2)CC1,"inconclusive: 15.8 µM [inhibitor, partial curve, poor fit]",–
CCOC(=O)c1ccc(N2C(=O)c3n[nH]c(-c4ccco4)c3C2c2cccc([N+](=O)[O-])c2)cc1 (stereo not given),"inconclusive: 35.5 µM [inhibitor, single point]",–
N#Cc1cccc(NC(=O)C2CCN(S(=O)(=O)c3ccc4c(c3)CCCN4C(=O)C3CCC3)CC2)c1,"inconclusive: 1.58 µM [inhibitor, partial curve, poor fit]",–
CCCN(CCC)C(=O)Cn1c(SCc2cccc(F)c2)nc2cccnc21,–,inactive: -3.89% [at 46.1 µM]
COC(=O)CC=C[C@H](C)[C@H](Cc1ccccc1Br)OC,"inconclusive: 1.19 µM [activator, single point]",–
O=C(N/N=C/c1ccc(Br)s1)c1ccccn1,"inconclusive: 0.146 µM [activator, full curve, poor fit]",–
CC1=C(C(=O)OCCOc2ccccc2)C(c2ccc(C)o2)C2=C(CC(C)(C)CC2=O)N1 (stereo not given),"inconclusive: 11.2 µM [inhibitor, partial curve, poor fit]",–
CCS/C(N)=N/N=C/c1cc(C)ccc1O,"inconclusive: 0.282 µM [activator, full curve, poor fit]",–
CCCOc1ccc(CNC(=O)CCCN2C(=O)CSc3c2c(C)nn3-c2ccccc2)cc1,"inconclusive: 31.6 µM [inhibitor, partial curve, poor fit]",–
COc1cc(/C(C)=N/NC(=O)CSc2nc3ccccc3[nH]2)ccc1O,–,inactive: 3.65%
O=C(Nc1ccccc1)c1cccc(N2C(=O)C3C4C=CC(C4)C3C2=O)c1 (stereo not given),–,inactive: -0.307%
CCOc1ccccc1N1CN(Cc2ccccc2)CNC1=S,"inconclusive: 6.31 µM [inhibitor, single point]",–
CCOC(=O)c1csc(NC(=O)c2ccc(OCC)cc2)n1,"inconclusive: 7.08 µM [inhibitor, partial curve, poor fit]",–
Cc1ccc(-c2nc(CCNC(=O)C(=O)Nc3ccc(C)c(Cl)c3)cs2)cc1,–,inactive: 9.64% [at 46.1 µM]
COC(=O)c1ccc(CN(c2ccccc2Cl)S(C)(=O)=O)cc1,"inconclusive: 8.91 µM [inhibitor, partial curve, poor fit]",–
O=C(C1CCC(Cn2c(=S)[nH]c3ccccc3c2=O)CC1)N1CCN(c2ccccn2)CC1 (stereo not given),"inconclusive: 1 µM [inhibitor, full curve, poor fit]",–
O=C(O)/C=C/C(=O)NC1CCS(=O)(=O)C1 (stereo not given),"inconclusive: 0.259 µM [inhibitor, full curve, poor fit]",–
O=C(CSc1nc2ccccc2[nH]1)Nc1ccc2c(c1)CCC2,–,inactive: -16.5%
Cc1cccc(N=Cc2c(O)n(-c3ccccc3C)c(=O)[nH]c2=O)c1,"inconclusive: 29.1 µM [inhibitor, single point]",–

SMILES,Potency,"activity change, negative = inhibition"
O=C(CCCNS(=O)(=O)c1ccc(F)cc1)Nc1ccc(F)cc1,–,inactive: -0.517% [at 46.1 µM]
CCC(=O)c1cn(CC(=O)Nc2ccccc2)c2ccccc12,"inconclusive: 1.26 µM [activator, single point]",–
CCCC1=Nc2cc(C(=O)N3CCN(c4ccccn4)CC3)ccc2Sc2ccc(C)cc21,–,inactive: -9.52% [at 46.1 µM]
CN(c1ccccc1)S(=O)(=O)c1ccc(Cl)c(C(=O)Nc2ccc(-c3nc4ccccc4[nH]3)cc2)c1,"inconclusive: 29.1 µM [inhibitor, single point]",–
Cc1cc(C)c(Cn2cnc(-c3ccc([N+](=O)[O-])cc3)c2)c(C)c1,–,inactive: -16.4%
Cc1ccc(S(=O)(=O)CC(c2ccccc2)N2CCCCC2)cc1 (stereo not given),–,inactive: -9.93% [at 46.1 µM]
O=C(Oc1ccc(-c2nnco2)cc1)N(c1ccccc1)c1ccccc1,"inconclusive: 1.26 µM [inhibitor, single point]",–
Cc1ccc(-c2c[nH]c(=S)n2-c2ccccc2F)cc1,"inconclusive: 1.26 µM [inhibitor, partial curve, poor fit]",–
CSc1ccccc1OCc1cc(C(=O)NCCC2=CCCCC2)no1,–,inactive: 15.9%
COC(=O)c1ccc(-c2nc3cc(N)ccc3o2)cc1,"inconclusive: 17.8 µM [inhibitor, partial curve, poor fit]",–
Cc1ccc(C(=O)OC(C(=O)Nc2ccc(Cl)cc2C(F)(F)F)c2ccccc2)cc1 (stereo not given),"inconclusive: 35.5 µM [inhibitor, single point]",–
COC(=O)C1=C(C)OC(N)=C(C#N)C1c1ccc(OC)c(OC)c1OC (stereo not given),"inconclusive: 0.231 µM [inhibitor, single point]",–
Cc1nc(-c2ccc(F)cc2)sc1CCNC(=O)c1ccccc1C(F)(F)F,–,inactive: 3.95% [at 46.1 µM]
O=C(c1cncc(Br)c1)N1CCN(S(=O)(=O)c2ccc3ccccc3c2)CC1,"inconclusive: 20 µM [inhibitor, single point]",–
COCCCNC(=O)CCCn1c(=O)c2ccccc2n(CC(=O)Nc2c(C)cc(C)cc2C)c1=O,"inconclusive: 17.8 µM [activator, single point]",–
CCOC(=O)c1c2c([nH]c(=S)c1C#N)CCCC2,"inconclusive: 1.26 µM [inhibitor, single point]",–
N#Cc1nc(-c2ccco2)oc1N1CCc2ccccc2C1,"inconclusive: 6.51 µM [activator, single point]",–
Cc1cccc(-c2nnc(SCC(=O)Nc3ccc(C)c(C)c3)o2)c1,"inconclusive: 5.62 µM [activator, partial curve]",–
Cc1cc(C(N)=O)c2ccccc2n1,–,inactive: 2.59%
COc1ccc(S(=O)(=O)NCC(=O)Nc2ccc3c(c2)OCCO3)cc1OC,–,inactive: -5.1%
CC(=O)c1c(C)[nH]c(C(=O)CSc2nnc(-c3ccco3)n2Cc2ccccc2)c1C,"inconclusive: 16.4 µM [inhibitor, single point]",–
CN=c1scc(-c2cc(OC)ccc2OC)n1/N=C/c1c(C)[nH]c2ccccc12,"inconclusive: 8.91 µM [inhibitor, partial curve, poor fit]",–

# Entries above that contain two or more sulfur atoms, in the order listed:
SMILES,Potency,"activity change, negative = inhibition"
CCOC(=O)C(C)Sc1nc2c(c(-c3cccs3)c1C#N)CCC2 (stereo not given),–,inactive: -8.27%
O=C(CCN1C(=O)/C(=C\c2ccc(F)cc2)SC1=S)Nc1ccc(O)cc1,–,inactive: -27.9%
CC1CCN(C(=O)CSc2n[nH]c(-c3cccs3)n2)CC1,"inconclusive: 15.8 µM [inhibitor, partial curve, poor fit]",–

# Record cards, as listed above.
# COCCCNC(=O)CCCn1c(=O)c2ccccc2n(CC(=O)Nc2c(C)cc(C)cc2C)c1=O as listed: Potency: inconclusive: 17.8 µM [activator, single point]
# O=C(Nc1cccc(C(=O)N2CCCc3ccccc32)c1)c1ccccc1 as listed: Potency: inconclusive: 11.2 µM [inhibitor, partial curve, poor fit]
